In the supplement of paper PMC8616043:
Where a name gives a salt, the structure may show the parent alone. Some of the results follow. Single values are uncertain here, since repeats match poorly.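 The cells are human U-2 OS cells that stably carry a GFP sensor with a nuclear import signal and a classical export signal. They were transfected to make PR50, a 50-repeat proline–arginine dipeptide protein from the ALS/FTD gene C9ORF72. Each well's nuclear-minus-cytoplasm GFP signal was scaled from in-plate DMSO (low) to PR-only wells (high), then scored against the other test wells on the plate; compounds scoring well below zero were called hits that reverse the PR effect.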

Tested on: U-2 OS NCT-C biosensor cells expressing PR50
Experiment: Z-score of normalised NCT-C biosensor translocation index in PR50-expressing cells; higher = more nuclear biosensor (more disrupted nuclear export)
Details: 3 µM; 24 h

With `COc1cc2c(cc1O)[C@@H](Cc1ccc(O)c(Oc3ccc(C[C@@H]4c5cc(OC)c(OC)cc5CCN4C)cc3)c1)N(C)CC2` [Daurisoline] as the compound, how does the Z-score read?
The Z-score was inactive: -1.19.

With `CC[C@]12CCCN3CCc4c(n(c5ccccc45)C(=O)C1)[C@@H]32` [(-)-Eburnamonine] as the compound, how does the Z-score read?
The Z-score was inactive: -0.766.

How did the Z-score turn out when `CC#CCOC(=O)c1c(C)nc2sc3c(c2c1N)CCC(O)C3` (configuration not stated) was run?
The Z-score was inactive: -0.961.

How did the Z-score turn out when `NC(=O)c1ccncc1` [Isonicotinamide] was run?
Its Z-score is inactive: 1.02.

How did the Z-score turn out when `Cn1cc(C2=C(c3ccc(Cl)cc3Cl)C(=O)NC2=O)c2ccccc21` was run?
The Z-score was inactive: 0.405.

For `CN(N=O)C(=O)N[C@@H](C=O)[C@@H](O)[C@H](O)[C@H](O)CO` [Streptozotocin], which Z-score is on record?
Its Z-score is inactive: -0.609.

Which Z-score does the source give for `Cc1ccc(C(=O)Nc2ccc(S(=O)(=O)O)c3cc(S(=O)(=O)O)cc(S(=O)(=O)O)c23)cc1NC(=O)c1cccc(NC(=O)Nc2cccc(C(=O)Nc3cc(C(=O)Nc4ccc(S(=O)(=O)O)c5cc(S(=O)(=O)O)cc(S(=O)(=O)O)c45)ccc3C)c2)c1` [Suramin hexasodium] here?
The Z-score was inactive: -0.658.

For `CCc1cc(C(N)=S)ccn1` [Ethionamide], which Z-score is on record?
Its Z-score is inactive: 1.05.

Which Z-score does the source give for `CC(=O)Nc1c(I)c(NC(C)=O)c(I)c(C(=O)O)c1I` [Diatrizoate Meglumine] here?
Its Z-score is inactive: -0.145.

Which Z-score does the source give for `NC[C@@H]1O[C@H](O[C@@H]2[C@@H](CO)OC(O[C@@H]3[C@@H](O)[C@H](N)C[C@H](N)[C@H]3OC3O[C@H](CN)[C@@H](O)[C@H](O)[C@H]3N)[C@@H]2O)[C@H](N)[C@@H](O)[C@@H]1O` (some centres not stated) [Neomycin trisulfate] here?
Its Z-score is inactive: 0.115.

Which Z-score does the source give for `Cc1cn([C@@H]2C[C@@H](O)[C@H](CO)O2)c(=O)[nH]c1=O` [Telbivudine] here?
The Z-score was inactive: -0.798.

For `CN1CCN(C(c2ccccc2)c2ccc(Cl)cc2)CC1` (configuration not stated) [Chlorcyclizine], which Z-score is on record?
Its Z-score is inactive: 0.665.

`Cc1c(Cl)cccc1Nc1ncccc1C(=O)O` [Clonixin] was tested. Which Z-score did it give?
Its Z-score is inactive: 5.29.

For `C=C1/C(=C\C=C2/CCC[C@]3(C)[C@@H]([C@H](C)CCCC(C)(C)O)CC[C@@H]23)C[C@@H](O)C[C@@H]1O` [Calcitriol], which Z-score is on record?
The Z-score was inactive: -1.87.

`CC(C)(O/N=C(\C(=O)N[C@@H]1C(=O)N2C(C(=O)[O-])=C(C[n+]3ccccc3)CS[C@H]12)c1csc(N)n1)C(=O)O` [Ceftazidime] was tested. Which Z-score did it give?
Its Z-score is inactive: 0.929.

For `CCc1c2c(nc3ccc(OC(=O)N4CCC(N5CCCCC5)CC4)cc13)-c1cc3c(c(=O)n1C2)COC(=O)[C@]3(O)CC` [Irinotecan·HCl], which Z-score is on record?
Its Z-score is inactive: 1.84.

`C=CCN1CCc2c(cc(O)c(O)c2Cl)C(c2ccccc2)C1` (racemic) [(±)-Chloro-APB hydrobromide] was tested. Which Z-score did it give?
The Z-score was inactive: 0.259.

`CNCCC=C1c2ccccc2CCc2ccccc21` [Nortriptyline·HCl] was tested. Which Z-score did it give?
Its Z-score is inactive: -0.394.

Which Z-score does the source give for `CNCCC=C1c2ccccc2CCc2ccccc21` [Nortriptyline hydrochloride] here?
The Z-score was inactive: -0.0819.

With `C[C@H]1[C@H](NC(=O)/C(=N\OC(C)(C)C(=O)O)c2csc(N)n2)C(=O)N1S(=O)(=O)O` [Aztreonam] as the compound, how does the Z-score read?
Its Z-score is inactive: 0.512.

Which Z-score does the source give for `CC(=O)NNC(=O)N1Cc2ccccc2Oc2ccc(Cl)cc21` here?
The Z-score was inactive: -1.1.

For `CNC[C@H](O)c1cccc(O)c1` [Phenylephrine], which Z-score is on record?
Its Z-score is inactive: -0.0358.

How did the Z-score turn out when `CNC[C@H](O)c1cccc(O)c1` [(R)-(-)-  Phenylephrine hydrochloride] was run?
The Z-score was inactive: 0.0825.

For `CN1C(=O)CC(C)(c2ccccc2)C1=O` (configuration not stated) [Methsuximide], which Z-score is on record?
The Z-score was inactive: -0.762.

`[Cl-].[Li+]` [Lithium chloride] was tested. Which Z-score did it give?
Its Z-score is inactive: 0.348.

`CCCCCCN(CCCCCC)C(=O)Cc1c(-c2ccc(F)cc2)[nH]c2ccccc12` [N,N-Dihexyl-2-(4- fluorophenyl) indole- 3-acetamide] was tested. Which Z-score did it give?
Its Z-score is inactive: -0.0625.

`CCN(CC)CCNC(=O)c1ccc(NC(C)=O)cc1` [N-Acetyl procainamide HCl] was tested. Which Z-score did it give?
Its Z-score is inactive: 0.802.

`CCOC(=O)[C@H](CCc1ccccc1)N[C@@H](C)C(=O)N1[C@H](C(=O)O)C[C@H]2CCCC[C@@H]21` [Trandolapril] was tested. Which Z-score did it give?
Its Z-score is inactive: -0.566.

For `COc1cc2c(cc1OC)-c1cc3ccc(OC)c(OC)c3c[n+]1CC2` [Palmatine chloride], which Z-score is on record?
The Z-score was inactive: -0.426.

For `COC(=O)[C@H]1[C@H]2C[C@@H]3c4[nH]c5cc(OC)ccc5c4CCN3C[C@H]2C[C@@H](OC(=O)c2cc(OC)c(OC)c(OC)c2)[C@@H]1OC` [Reserpine], which Z-score is on record?
The Z-score was inactive: 0.0793.

For `CC(C)C[C@H](NC(=O)[C@@H](O)[C@H](N)Cc1ccccc1)C(=O)O` [Bestatin hydrochloride], which Z-score is on record?
The Z-score was inactive: 3.55.

`C=CCc1ccc(O)c(-c2ccc(O)c(CC=C)c2)c1` [Honokiol] was tested. Which Z-score did it give?
Its Z-score is inactive: -0.57.

How did the Z-score turn out when `O=C(O)CN(CCOCCOCCN(CC(=O)O)CC(=O)O)CC(=O)O` was run?
The Z-score was inactive: -0.0924.

For `O=c1c(-c2ccc(O)cc2)coc2cc(O)cc(O)c12` [Genistein], which Z-score is on record?
The Z-score was inactive: 0.474.

How did the Z-score turn out when `CN(CCOc1ccc(NS(C)(=O)=O)cc1)CCc1ccc(NS(C)(=O)=O)cc1` [Dofetilide] was run?
The Z-score was inactive: -1.34.

With `CNCC(O)c1ccc(O)c(O)c1` (racemic) [(+-)-Epinephrine hydrochloride] as the compound, how does the Z-score read?
The Z-score was inactive: -0.404.

For `CC(=O)N1CCN(c2ccc(OCC3COC(Cn4ccnc4)(c4ccc(Cl)cc4Cl)O3)cc2)CC1` (configuration not stated) [Ketoconazole], which Z-score is on record?
Its Z-score is inactive: -0.489.

`CC(C)NCC(O)c1ccc(NS(C)(=O)=O)cc1` (configuration not stated) [Sotalol·HCl] was tested. Which Z-score did it give?
The Z-score was inactive: 1.24.

How did the Z-score turn out when `C#C[C@]1(O)CC[C@H]2[C@@H]3CCc4cc(OC)ccc4[C@H]3CC[C@@]21C` [Mestranol] was run?
The Z-score was inactive: -0.215.

How did the Z-score turn out when `COc1ccc2cccc(CCNC(C)=O)c2c1` [Agomelatine] was run?
The Z-score was inactive: 0.448.

With `CCN(CC)CCCC(C)Nc1c2ccc(Cl)cc2nc2ccc(OC)cc12` (configuration not stated) [Quinacrine dihydrochloride] as the compound, how does the Z-score read?
The Z-score was inactive: -0.634.

`COc1ccc(/C=C/c2cc(OC)cc(=O)o2)cc1` [Yangonin] was tested. Which Z-score did it give?
The Z-score was inactive: 0.473.
